Experiment: physchem
Details: deionized water

Which solubility at 0.05 h does the source give for `COC(=O)C1=C(C)NC(C)=C(C(=O)OC)C1c1ccccc1[N+](=O)[O-]` [nifedipine, reference compound] here?
Its solubility at 0.05 h is ≤ 100 µg/mL.

From patent US6133443A, “Optically active 1,4-dihydropyridine derivatives and process for the preparation thereof” (Mercian Corporation, priority 1996, dated 2000)
